{"sequences": {"note": "Chains of the proteins cited; added tags and fusions are not shown. Lines headed by an entry give the natural chain unless they say otherwise; changes in a name come on top.", "UniProt O96935": "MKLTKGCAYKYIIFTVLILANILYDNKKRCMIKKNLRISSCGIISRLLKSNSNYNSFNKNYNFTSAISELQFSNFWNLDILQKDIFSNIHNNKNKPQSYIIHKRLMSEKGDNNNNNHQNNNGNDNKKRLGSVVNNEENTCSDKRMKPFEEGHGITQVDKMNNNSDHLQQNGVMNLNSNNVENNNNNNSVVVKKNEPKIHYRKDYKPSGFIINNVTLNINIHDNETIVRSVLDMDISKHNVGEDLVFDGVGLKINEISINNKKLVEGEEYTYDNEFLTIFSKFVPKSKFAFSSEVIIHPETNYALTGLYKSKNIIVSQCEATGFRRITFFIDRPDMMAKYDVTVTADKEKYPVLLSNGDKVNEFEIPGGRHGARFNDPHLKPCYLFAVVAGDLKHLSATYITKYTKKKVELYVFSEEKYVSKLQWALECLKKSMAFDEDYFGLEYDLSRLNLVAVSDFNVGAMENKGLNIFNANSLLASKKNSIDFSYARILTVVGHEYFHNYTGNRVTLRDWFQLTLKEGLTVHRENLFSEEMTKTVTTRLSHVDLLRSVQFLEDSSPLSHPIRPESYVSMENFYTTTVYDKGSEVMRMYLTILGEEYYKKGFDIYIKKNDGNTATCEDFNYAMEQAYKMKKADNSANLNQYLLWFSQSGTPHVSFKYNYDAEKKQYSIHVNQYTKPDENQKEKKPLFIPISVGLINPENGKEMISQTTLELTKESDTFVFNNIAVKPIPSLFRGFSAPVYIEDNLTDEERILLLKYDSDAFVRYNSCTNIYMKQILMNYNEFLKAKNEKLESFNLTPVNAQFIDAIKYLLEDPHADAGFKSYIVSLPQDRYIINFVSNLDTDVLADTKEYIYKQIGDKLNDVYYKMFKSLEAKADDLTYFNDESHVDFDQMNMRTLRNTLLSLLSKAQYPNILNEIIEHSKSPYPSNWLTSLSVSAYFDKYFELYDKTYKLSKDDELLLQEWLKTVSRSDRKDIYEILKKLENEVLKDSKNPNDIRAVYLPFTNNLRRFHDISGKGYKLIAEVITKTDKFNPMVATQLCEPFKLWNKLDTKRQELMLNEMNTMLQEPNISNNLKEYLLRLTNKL"}, "source": "PubChem BioAssay AID1445", "about": "(SRMLSC, 2008)", "note": "About 910 (0.41%) of roughly 220,000 compounds were called active. The inconclusive results got no clear call from the source; some entries with a clear call stand among them for comparison.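 How the source made its calls: active means primary inhibition above the hit cutoff, then over 50% inhibition at one or more dose response concentrations (cut at about 23% in these data, passing the limit was not always enough); inconclusive means conflicting primary data, or primary hits not chosen for dose response; inactive means low primary inhibition, or under 50% at every dose.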", "data": [{"target": "Aminopeptidase N (Plasmodium falciparum (isolate 3D7)) (UniProt O96935)", "assay": "P. falciparum M1AAP inhibitors, biochemical, fluorogenic H-Leu-NHMec substrate, 1536-well (AID 1445);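 further: plate controls were DMSO full reaction for no effect and no enzyme background for full effect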", "conditions": "recombinant M1AAP, H-Leu-NHMec fluorogenic kinetic assay; at 30 µM, active compounds read high unless noted", "values": [{"smiles": "O=C(COCC(=O)N/N=C/c1ccccc1F)N/N=C/c1ccccc1F", "inhibition": "inconclusive: 26.7%"}, {"smiles": "C=CCNc1oc(-c2cccc3ccccc23)nc1C#N", "inhibition": "inconclusive: 15.3%"}, {"smiles": "COc1ccc(C2NC(=S)NC3=C2CCc2cc(OC)ccc23)cc1", "note": "(stereo not given)", "inhibition": "inconclusive: 52%"}, {"smiles": "Cc1ccc(C(=O)Nc2ccccc2C(=O)N2CCCCCC2)cc1", "inhibition": "inactive: 4.87%"}, {"smiles": "CC(C)(C)NC(=O)c1ccc2c(c1)N(CC(=O)N1CCN(c3ccccc3F)CC1)C(=O)C(C)(C)O2", "inhibition": "inconclusive: 25%"}, {"smiles": "CCCCCc1nc2sc3c(c2c(=O)n1NC(=O)c1ccc([N+](=O)[O-])cc1)CC(C)(C)OC3", "inhibition": "inactive: 4.81%"}, {"smiles": "O=S1(=O)c2ccccc2N=NN1Cc1ccc(Cl)c(Cl)c1", "inhibition": "inconclusive: 26.5%"}, {"smiles": "Cc1cc(C(=O)OCC(=O)NCc2ccc(Cl)cc2)c(C)o1", "inhibition": "inactive: -6.7%"}, {"smiles": "CSc1nc2c(c(=O)[nH]1)C(c1cccs1)C1=C(CCCC1=O)N2", "note": "(stereo not given)", "inhibition": "inactive: 9.61%"}, {"smiles": "CCCc1cc(=O)oc2cc(OCC(=O)N(C)C)c(Cl)cc12", "inhibition": "inactive: -0.86%"}, {"smiles": "COc1ccc(-c2nn(C)c(=O)c3ccccc23)cc1CNC(=O)c1ccco1", "inhibition": "inconclusive: 27.9%"}, {"smiles": "O=c1cc(CSc2nnc(COc3ccccc3Cl)o2)nc2sccn12", "inhibition": "active: 25.3%"}, {"smiles": "COC(=O)C1=CN(c2cccc(C)c2)C=C(C(=O)OC)C1c1cc(OC)c(O)c([N+](=O)[O-])c1", "inhibition": "inconclusive: 43.7%"}, {"smiles": "CCCSc1ccc(-c2nn(-c3ccccc3)cc2/C=C(/C#N)C(=O)NCCCOC)cc1", "inhibition": "inconclusive: 24.4%"}, {"smiles": "CC1CCCN(Cc2c(O)ccc3c(=O)c(-c4nc5ccccc5s4)c(N)oc23)C1", "note": "(stereo not given)", "inhibition": "active: 24.6%"}, {"smiles": "O=C(O)Cc1cc(C(=O)Nc2ccc(Br)cc2)sc1-c1ccccc1", "inhibition": "inactive: 8.41%"}, {"smiles": "O=c1[nH][nH]cc1C=Nc1ccccc1O", "inhibition": "inconclusive: 28.3%"}, {"smiles": "Cc1nnc(N/N=C/c2c(O)n(-c3cccc(C(F)(F)F)c3)c(=O)c3ccccc23)[nH]c1=O", "inhibition": "inconclusive: 27.1%"}, {"smiles": "Fc1ccc(CN2CCSCC2)cc1Br", "inhibition": "inactive: 0.38%"}, {"smiles": "Cc1nc2sc(C(c3ccc(C(C)C)cc3)N3CCN(CCO)CC3)c(O)n2n1", "note": "(stereo not given)", "inhibition": "inactive: 1.32%"}, {"smiles": "Cc1cc(C)c(S(=O)(=O)/N=C2/C=C(Sc3ncn[nH]3)C(=O)c3ccccc32)cc1C", "inhibition": "inconclusive: 36.5%"}, {"smiles": "Cc1ccc(/C=[N+](/C)[O-])cc1", "inhibition": "inactive: 5.58%"}, {"smiles": "Cn1cnnc1SCC(=O)NNC(=O)COc1ccc(Br)cc1", "inhibition": "inconclusive: 25%"}, {"smiles": "COc1ccc(-c2nc(C#N)c(NCCCN3CCOCC3)o2)cc1", "inhibition": "active: 27.7%"}, {"smiles": "COc1ccc(Oc2cc(C)c3cccc(C)c3n2)cc1", "inhibition": "inactive: -2.89%"}]}]}
